# Earlier results as cited in US20100136106A1, “Modified Release Famciclovir Compositions” (priority 2005, published 2010).
smiles,measurement,setting,value
"COC(=O)C(c1ccccc1)C1CCCCN1 (stereo not drawn) [methylphenidate, α-phenyl-2-piperidine acetic acid methyl ester]",persistence of drug effects,oral administration of conventional IR tablets,3 to 6 h
same,persistence of drug effects,oral administration of extended release formulations,up to 8 hours

# Read-outs that look alike come from different tables or passages of the source.
